In assay [1] the target is T1, endogenous CBP80 of mouse C2C12 myoblasts (mouse) (UniProt Q3UYV9).
T1 sequence (looked up): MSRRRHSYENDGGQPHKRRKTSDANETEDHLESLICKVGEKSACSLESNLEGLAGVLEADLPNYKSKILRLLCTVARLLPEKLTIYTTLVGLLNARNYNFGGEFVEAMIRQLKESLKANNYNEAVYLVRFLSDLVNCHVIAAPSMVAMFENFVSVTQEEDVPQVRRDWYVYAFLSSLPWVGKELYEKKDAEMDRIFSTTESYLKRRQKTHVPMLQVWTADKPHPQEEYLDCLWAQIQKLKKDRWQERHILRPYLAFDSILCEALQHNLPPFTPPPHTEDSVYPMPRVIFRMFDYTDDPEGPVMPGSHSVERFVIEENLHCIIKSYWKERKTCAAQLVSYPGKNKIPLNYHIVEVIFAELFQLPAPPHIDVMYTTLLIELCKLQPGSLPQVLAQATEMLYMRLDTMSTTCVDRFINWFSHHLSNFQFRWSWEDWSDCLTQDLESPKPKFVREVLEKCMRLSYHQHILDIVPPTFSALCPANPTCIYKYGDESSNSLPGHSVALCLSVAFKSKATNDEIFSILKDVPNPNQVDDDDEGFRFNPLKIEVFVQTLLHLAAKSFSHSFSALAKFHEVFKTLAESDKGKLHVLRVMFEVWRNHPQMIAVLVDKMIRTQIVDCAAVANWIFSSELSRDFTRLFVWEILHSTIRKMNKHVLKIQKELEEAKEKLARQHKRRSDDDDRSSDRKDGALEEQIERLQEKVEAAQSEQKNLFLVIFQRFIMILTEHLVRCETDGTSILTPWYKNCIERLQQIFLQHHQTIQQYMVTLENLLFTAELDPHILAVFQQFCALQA
In words: co-immunoprecipitation from C2C12 myoblast lysates, western blot. (Immunoblotting shows a protein as a band on a membrane.)

Protein sequences, listed by entry. Tags and fused reporters are not part of them. Lines headed by an entry give the natural chain unless they say otherwise; changes in a name come on top.
UniProt Q86YN6: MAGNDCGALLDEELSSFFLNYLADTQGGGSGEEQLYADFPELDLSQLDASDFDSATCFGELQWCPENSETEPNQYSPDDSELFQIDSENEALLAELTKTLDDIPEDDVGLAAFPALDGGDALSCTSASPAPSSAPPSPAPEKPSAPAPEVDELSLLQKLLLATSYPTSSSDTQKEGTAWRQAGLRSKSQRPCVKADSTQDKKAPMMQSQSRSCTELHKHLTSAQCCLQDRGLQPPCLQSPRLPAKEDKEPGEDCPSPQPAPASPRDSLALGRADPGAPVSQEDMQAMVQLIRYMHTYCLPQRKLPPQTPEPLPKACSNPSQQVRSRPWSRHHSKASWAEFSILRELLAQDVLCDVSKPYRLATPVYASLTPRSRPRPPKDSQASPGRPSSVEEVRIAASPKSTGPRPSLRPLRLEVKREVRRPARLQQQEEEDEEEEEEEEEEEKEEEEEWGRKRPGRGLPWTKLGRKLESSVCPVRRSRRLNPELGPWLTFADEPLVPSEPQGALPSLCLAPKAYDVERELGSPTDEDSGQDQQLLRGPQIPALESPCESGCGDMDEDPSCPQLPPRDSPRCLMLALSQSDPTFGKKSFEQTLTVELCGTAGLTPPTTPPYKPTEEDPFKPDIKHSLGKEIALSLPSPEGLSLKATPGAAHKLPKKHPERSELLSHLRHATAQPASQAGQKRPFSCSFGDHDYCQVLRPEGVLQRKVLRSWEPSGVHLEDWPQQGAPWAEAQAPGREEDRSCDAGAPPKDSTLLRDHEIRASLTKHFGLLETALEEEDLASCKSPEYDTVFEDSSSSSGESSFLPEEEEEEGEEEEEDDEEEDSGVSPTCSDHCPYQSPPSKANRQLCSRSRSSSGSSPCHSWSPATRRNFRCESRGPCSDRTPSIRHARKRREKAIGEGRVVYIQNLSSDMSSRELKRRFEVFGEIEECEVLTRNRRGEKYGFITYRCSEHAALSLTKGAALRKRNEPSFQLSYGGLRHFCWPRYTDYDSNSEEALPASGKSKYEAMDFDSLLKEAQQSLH

Assay [2] addresses T1, endogenous CBP80 of mouse C2C12 myoblasts (mouse). In words: co-immunoprecipitation from C2C12 myoblast lysates, with or without formaldehyde crosslinking and RNase I.
The target in assay [3] is T2, CBP80/CBP20 complex (human, UniProt Q09161 20-790; P52298 1-156, limits assumed).
T2 construct: Used in the fluorescence polarization assays; In the crystal it also carried the cap analogue (m7GpppG / m7GpppA); also called CBC complex; CBC
T2 sequence (looked up) 1: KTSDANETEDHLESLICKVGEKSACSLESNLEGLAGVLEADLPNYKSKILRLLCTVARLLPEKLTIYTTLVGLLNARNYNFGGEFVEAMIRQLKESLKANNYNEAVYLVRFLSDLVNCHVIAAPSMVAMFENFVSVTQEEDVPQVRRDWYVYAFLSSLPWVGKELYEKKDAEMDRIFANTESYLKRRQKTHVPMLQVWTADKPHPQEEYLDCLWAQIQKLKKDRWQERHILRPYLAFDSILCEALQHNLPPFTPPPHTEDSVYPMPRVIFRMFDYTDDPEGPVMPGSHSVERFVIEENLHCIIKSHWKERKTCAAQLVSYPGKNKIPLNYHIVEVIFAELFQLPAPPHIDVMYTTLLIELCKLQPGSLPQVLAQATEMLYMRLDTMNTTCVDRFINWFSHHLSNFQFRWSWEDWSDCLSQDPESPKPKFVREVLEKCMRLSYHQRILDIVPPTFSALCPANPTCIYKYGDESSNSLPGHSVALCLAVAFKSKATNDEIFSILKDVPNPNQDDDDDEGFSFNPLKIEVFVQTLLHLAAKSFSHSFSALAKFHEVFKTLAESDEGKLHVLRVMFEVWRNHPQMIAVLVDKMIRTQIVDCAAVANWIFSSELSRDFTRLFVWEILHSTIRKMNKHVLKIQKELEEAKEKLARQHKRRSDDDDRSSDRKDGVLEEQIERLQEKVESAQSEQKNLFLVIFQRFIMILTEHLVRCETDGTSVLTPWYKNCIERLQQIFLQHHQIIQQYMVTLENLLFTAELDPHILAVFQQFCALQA
T2 sequence (looked up) 2: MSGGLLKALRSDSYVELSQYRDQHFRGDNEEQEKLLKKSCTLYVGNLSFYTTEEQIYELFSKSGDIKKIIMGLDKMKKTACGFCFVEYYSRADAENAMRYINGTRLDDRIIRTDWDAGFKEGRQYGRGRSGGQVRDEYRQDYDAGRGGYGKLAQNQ
As to the kind of experiment: X-ray crystal structure of the PGC1β-CBP80-CBP20-cap complex.

Results are given in words; binding and its absence hold for the method and conditions named. For part of these data: Binding seen in cells or lysates may run through a third protein. Some entries that bind do so weakly or less than the wild type.

B1: endogenous PGC1α of mouse C2C12 myoblasts (protein, UniProt O70343 1-797, looked up)
chain: MAWDMCSQDSVWSDIECAALVGEDQPLCPDLPELDLSELDVNDLDTDSFLGGLKWCSDQSEIISNQYNNEPANIFEKIDEENEANLLAVLTETLDSLPVDEDGLPSFDALTDGAVTTDNEASPSSMPDGTPPPQEAEEPSLLKKLLLAPANTQLSYNECSGLSTQNHAANHTHRIRTNPAIVKTENSWSNKAKSICQQQKPQRRPCSELLKYLTTNDDPPHTKPTENRNSSRDKCASKKKSHTQPQSQHAQAKPTTLSLPLTPESPNDPKGSPFENKTIERTLSVELSGTAGLTPPTTPPHKANQDNPFKASPKLKPSCKTVVPPPTKRARYSECSGTQGSHSTKKGPEQSELYAQLSKSSGLSRGHEERKTKRPSLRLFGDHDYCQSLNSKTDILINISQELQDSRQLDFKDASCDWQGHICSSTDSGQCYLRETLEASKQVSPCSTRKQLQDQEIRAELNKHFGHPCQAVFDDKSDKTSELRDGDFSNEQFSKLPVFINSGLAMDGLFDDSEDESDKLSYPWDGTQPYSLFDVSPSCSSFNSPCRDSVSPPKSLFSQRPQRMRSRSRSFSRHRSCSRSPYSRSRSRSPGSRSSSRSCYYYESSHYRHRTHRNSPLYVRSRSRSPYSRRPRYDSYEAYEHERLKRDEYRKEHEKRESERAKQRERQKQKAIEERRVIYVGKIRPDTTRTELRDRFEVFGEIEECTVNLRDDGDSYGFITYRYTCDAFAALENGYTLRRSNETDFELYFCGRKQFFKSNYADLDTNSDDFDPASTKSKYDSLDFDSLLKEAQRSLRR
Turning to B1, the binding entry in assay [1] and in assay [2] was “binds” each time.

As to MDFDSLLKEAQQSLH (peptide, UniProt Q86YN6 1009-1023, looked up) [PGC1β (synthetic peptide) residues 1009-1023], the binding entry in assay [3] is listed as “binds”.

The values above are taken from patent publication US20180362587A1, “Compositions and Methods for Inhibiting CBP80 Binding to PGC1 Family of Co-Activators” (University of Rochester, priority 2015, published 2018).
